According to publication doi:10.1101/137711:
No constants are given. Whether binding was seen depends on the method and setting. Some results given as binding are weak or reduced against the parent protein; the word gives no strength.

Biological target: T1, Smc4(Q302L)-StrepII3, ATPase-deficient Q-loop mutant (S. cerevisiae) (UniProt Q12267)
T1 sequence: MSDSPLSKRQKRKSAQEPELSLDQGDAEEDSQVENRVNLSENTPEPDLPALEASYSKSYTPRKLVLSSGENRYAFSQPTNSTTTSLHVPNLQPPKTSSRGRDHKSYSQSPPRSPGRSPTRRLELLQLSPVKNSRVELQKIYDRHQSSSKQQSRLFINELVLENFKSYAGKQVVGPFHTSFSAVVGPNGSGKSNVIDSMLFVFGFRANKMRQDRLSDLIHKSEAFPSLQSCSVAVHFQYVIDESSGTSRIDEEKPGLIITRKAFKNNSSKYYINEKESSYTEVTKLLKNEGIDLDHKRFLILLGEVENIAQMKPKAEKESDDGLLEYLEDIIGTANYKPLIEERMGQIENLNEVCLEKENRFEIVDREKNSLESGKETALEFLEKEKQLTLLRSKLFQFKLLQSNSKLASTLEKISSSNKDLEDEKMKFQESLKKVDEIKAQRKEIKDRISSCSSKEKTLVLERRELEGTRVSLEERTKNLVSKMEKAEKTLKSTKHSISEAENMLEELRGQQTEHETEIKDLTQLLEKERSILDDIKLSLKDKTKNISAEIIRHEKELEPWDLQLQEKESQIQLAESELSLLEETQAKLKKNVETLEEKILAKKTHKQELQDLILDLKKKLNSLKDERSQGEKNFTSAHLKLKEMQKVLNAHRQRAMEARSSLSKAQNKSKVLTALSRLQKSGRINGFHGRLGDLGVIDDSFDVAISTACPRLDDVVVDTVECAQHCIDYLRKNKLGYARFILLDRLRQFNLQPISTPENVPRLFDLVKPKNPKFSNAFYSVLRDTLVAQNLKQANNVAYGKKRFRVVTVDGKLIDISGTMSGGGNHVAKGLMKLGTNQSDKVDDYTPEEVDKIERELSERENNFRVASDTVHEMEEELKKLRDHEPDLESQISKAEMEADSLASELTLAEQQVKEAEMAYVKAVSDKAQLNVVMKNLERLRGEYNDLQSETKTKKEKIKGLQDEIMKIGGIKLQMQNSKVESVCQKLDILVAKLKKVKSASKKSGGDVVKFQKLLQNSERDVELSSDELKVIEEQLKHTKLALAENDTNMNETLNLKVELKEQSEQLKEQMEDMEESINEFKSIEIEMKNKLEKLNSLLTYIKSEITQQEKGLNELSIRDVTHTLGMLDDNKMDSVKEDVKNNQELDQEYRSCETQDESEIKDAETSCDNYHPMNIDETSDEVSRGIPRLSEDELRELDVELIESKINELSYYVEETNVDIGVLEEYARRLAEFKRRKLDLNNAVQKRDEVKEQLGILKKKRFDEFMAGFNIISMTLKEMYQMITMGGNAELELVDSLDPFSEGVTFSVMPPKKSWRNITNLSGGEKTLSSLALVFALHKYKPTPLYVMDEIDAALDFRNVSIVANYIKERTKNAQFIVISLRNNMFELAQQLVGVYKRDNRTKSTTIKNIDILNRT
Assay: tandem affinity co-purification + SEC

B1: Ycs4 HEAT-repeat subunit of condensin (protein, UniProt Q06156 1-1176)
chain: MSGFSLSEYLTKFQTTDRESYPRLQDPSRELNVIIDQLAVSPEQIDASPDSLEALIDLCHDFPHLTPKLQTQLSYLISSSLSNLSKDIKANLSSNVNFTEIGGLIPQWKRHLEEYGYLIQVLLTFLQDELHKVSSQSTNLNRSAKNSKNDSANVELFKRDCNQMENLLESITKLLEINLSKIFQTTPEKDLFIGLFTRPLFVLLEIEPVTKVSSLKMFIQRILAMCVKNHGQSSSIQSSLMTNLTYFLHLSVFNAELLKLLNDEYNYPQLTEDILKEISTRVFNAKDTTGPKAISNFLIKLSELSPGIMLRQMNLVITLLNNSSITLRCSVVEACGNIVAELAQDPQTMEHYKQQIAVLIELLEERFQDSNPYVRTKAIQGCSKICDLSSKFNKSKAKFTSLAVRSLQDRSSLVRRNSVKLLSKLLLKHPFKAIHGSQLRLSEWEEYLKGSESQLNSTLKKVESQETLNDTIERSLIEEEVEQDEGQCRTELEGSFNKSAELSRIENEVENINATNTSVLMKLKLMIVYYKDAISFIKEIHKSIELISNLLFSKNRNEVLESMDFLVLADAFDIELSEFGIKKMLHLVWMKGTNDEGTSISVHLIECYKQLFLTAPDSCNMQEKAAHIAKNLINLSIGASIADLASLEQLLGMMYEQKLIDQHVINILWAIYNSASKASMQKEQNVNNRDSEKGFSKEQIHGSIIILGMLSLADNEIALKGLESLLNIGLGAVGLKDLTLCRYSCLALERMVPKRSTIITKAINQELEDVAVKKLYAIIINYTKDNEYYPMCEQALSALFTISSKPDILATDLIREKTMMTFGKPEEEDSILSLEQSSRVVSLSQLLFIVGQVAIKTLVYLEKCEAEFKKRKIEAETRNGKVKNQGADVTNTTQDNGGDKELEMIGGTNEDDFTDAIQFVKENELLFGEKSILGKFCPIVEEIVSNSSRFSDPMLQRTATLCLEKLMCLSSKYCEKSLPLLITVMEKSPDPTIRSNAVLGLGDMAVCFNNLVDENTDYLYRRLHDENLMVQRTCLMTVTFLILAGQVKVKGQLGEMAKCLDNPDQGISDMCRLFFTELASKDNAIYNGFIDIFSNLSSDDLLGKESFKKIIKFLLTFIDKERHQKQLNEKLVGRLRKCETQKQWDDIAFVLNNLPYKNEDVTALLEQGFKVVSAKE
binding: binds
